According to patent US20170189504A1, “NOVEL PEPTIDES AND COMBINATION OF PEPTIDES FOR USE IN IMMUNOTHERAPY AGAINST VARIOUS CANCERS” (immatics biotechnologies GmbH, priority 2015, published 2017):
For some of these results: Expression grades refer to the transcript from which the peptide derives; gene names, where given, were looked up from the sequence.

What was measured:
HLA-A*02 = experiment: Identification and relative LC-MS quantitation of HLA-A*02-presented tumor-associated peptides on tissue samples (presentation profiles, Tables 13A, 13B, 15, FIG. 1); design: species or system human; key to Presentation score NHL / Presentation score CLL / Presentation score BRCA / Presentation score AML / Presentation score GB / Presentation score NSCLC / Presentation score GBC_CCC / Presentation score UEC / Presentation score MEL / Presentation score OSCAR / Presentation score GC / Presentation score UBC / Presentation score OC / Presentation score RCC / Presentation score CRC / Presentation score PCA / Presentation score HCC / Presentation score PC / Presentation score SCLC: specifically presented on tumors (++++); very highly over-presented on tumors compared to a panel of normal tissues (+++); highly over-presented on tumors compared to a panel of normal tissues (++); over-presented on tumors compared to a panel of normal tissues (+); conditions: for Peptide Presentation on cancer entities: HLA-A*02-binding tumor-associated peptides; for Presentation score CLL: chronic lymphocytic leukemia (N = 17) vs panel of normal tissues (N = 262)
source genes (mRNA) [1] = experiment: Gene and exon expression of source genes, TCGA tumor samples compared with normal tissue samples (Lonsdale, 2013) (Table 17); design: species or system human; conditions: for Over-expression category of source gene (target coverage), BLCA: BLCA = Bladder urothelial carcinoma (N = 408); for Over-expression category of source gene (target coverage), BRCA: BRCA = Breast cancer (N = 1104), tumors more than 2-fold above highest 75% percentile of normal tissues; for Over-expression category of source gene (target coverage), CHOL: CHOL = Cholangiocarcinoma (N = 36); for Over-expression category of source gene (target coverage), COAD: COAD = Colon and rectal adenocarcinoma (N = 462); for Over-expression category of source gene (target coverage), DLBC: DLBC = Lymphoid neoplasm diffuse large B-cell lymphoma (N = 48); for Over-expression category of source gene (target coverage), ESCA: ESCA = Esophageal cancer (N = 185); for Over-expression category of source gene (target coverage), GBM: GBM = Glioblastoma multiforme (N = 169); for Over-expression category of source gene (target coverage), KICH: KICH = Kidney chromophobe (N = 66); for Over-expression category of source gene (target coverage), KIRP: KIRP = Papillary kidney carcinoma (N = 291); for Over-expression category of source gene (target coverage), LAML: LAML = Acute Myeloid Leukemia (N = 173); for Over-expression category of source gene (target coverage), LUAD: LUAD = Lung adenocarcinoma (N = 517); for Over-expression category of source gene (target coverage), LUSC: LUSC = Lung squamous cell carcinoma (N = 503); for Over-expression category of source gene (target coverage), OV: OV = Ovarian serous cystadenocarcinoma (N = 309); for Over-expression category of source gene (target coverage), PAAD: PAAD = Pancreatic ductal adenocarcinoma (N = 179); for Over-expression category of source gene (target coverage), PRAD: PRAD = Prostate adenocarcinoma (N = 498); for Over-expression category of source gene (target coverage), READ: READ = Colon and rectal adenocarcinoma (N = 167); for Over-expression category of source gene (target coverage), SKCM: SKCM = Skin cutaneous melanoma (N = 473); for Over-expression category of source gene (target coverage), STAD: STAD = Stomach adenocarcinoma (N = 415); for Over-expression category of source gene (target coverage), UCEC: UCEC = Uterine corpus endometrial carcinoma (N = 546); for Over-expression category of source gene (target coverage), LGG: LGG = Lower grade glioma (N = 534)
source genes (mRNA) [2] = experiment: Expression profiling of source genes by in-house RNASeq of tumor and normal tissues (Table 18, FIG. 2); design: species or system human; key: very highly over-expressed in tumors compared to a panel of normal tissues (+++); highly over-expressed in tumors compared to a panel of normal tissues (++); over-expressed in tumors compared to a panel of normal tissues (+); conditions: source gene of peptide; for Expression score BRCA: BRCA tumors vs panel of normal tissues; for Expression score AML: acute myeloid leukemia (N = 11) vs panel of normal tissues; for Expression score OSCAR: esophageal cancer incl. gastric-esophageal junction (N = 11) vs panel of normal tissues; for Expression score GC: gastric cancer (N = 11) vs panel of normal tissues; for Expression score NHL: non-Hodgkin lymphoma (N = 10) vs panel of normal tissues; for Expression score NSCLC: non-small cell lung cancer (N = 11) vs panel of normal tissues; for Expression score OC: ovarian cancer (N = 12) vs panel of normal tissues; for Expression score SCLC: small cell lung cancer (N = 10) vs panel of normal tissues; for Expression score UBC: urinary bladder cancer (N = 10) vs panel of normal tissues; for Expression score UEC: uterine cancer (N = 10) vs panel of normal tissues; for Expression score GBC_CCC: gallbladder adenocarcinoma and cholangiocarcinoma (N = 3) vs panel of normal tissues
[3] = Table 13A, cancer entities on which the peptide was found presented
[4] = Table 13B, presentation on additional cancer entities

## 247: peptide found in DPP3 (gene looked up) (ALYEGYATV; listed as Homo sapiens) [compound 247]
HLA-A*02; HLA-A*02 peptides, breast cancer (N = 17) vs panel of normal tissues (N = 262)
  Presentation score BRCA: ++
HLA-A*02; HLA-A*02 peptides, esophageal cancer, including cancer of the gastric-esophageal junction (N = 17) vs panel of normal tissues (N = 262)
  Presentation score OSCAR: +
HLA-A*02; HLA-A*02 peptides, small cell lung cancer (N = 19) vs panel of normal tissues (N = 262)
  Presentation score SCLC: +
HLA-A*02; HLA-A*02 peptides, urinary bladder cancer (N = 16) vs panel of normal tissues (N = 262)
  Presentation score UBC: +++
HLA-A*02; [3]
  Peptide Presentation on cancer entities: NSCLC, HCC, CLL, OSCAR, OC, SCLC, UBC, UEC, BRCA, GBC_CCC, MEL, RCC, CRC, PC, NHL
HLA-A*02; [4]
  Peptide Presentation on cancer entities: AML, HNSCC
Source genes (mRNA) [1]; same cutoff
  Over-expression category of source gene (target coverage), BLCA: A (>=50% of tumors above the cutoff)
  Over-expression category of source gene (target coverage), CHOL: A (>=50% of tumors above the cutoff)
  Over-expression category of source gene (target coverage), COAD: A (>=50% of tumors above the cutoff)
  Over-expression category of source gene (target coverage), DLBC: A (>=50% of tumors above the cutoff)
  Over-expression category of source gene (target coverage), ESCA: A (>=50% of tumors above the cutoff)
  Over-expression category of source gene (target coverage), GBM: C (>=5% of tumors above the cutoff, but <20%)
  Over-expression category of source gene (target coverage), KICH: C (>=5% of tumors above the cutoff, but <20%)
  Over-expression category of source gene (target coverage), KIRP: B (>= 20% of tumors above the cutoff, but <50%)
  Over-expression category of source gene (target coverage), LAML: C (>=5% of tumors above the cutoff, but <20%)
  Over-expression category of source gene (target coverage), LUAD: B (>= 20% of tumors above the cutoff, but <50%)
  Over-expression category of source gene (target coverage), LUSC: A (>=50% of tumors above the cutoff)
  Over-expression category of source gene (target coverage), OV: A (>=50% of tumors above the cutoff)
  Over-expression category of source gene (target coverage), PAAD: B (>= 20% of tumors above the cutoff, but <50%)
  Over-expression category of source gene (target coverage), PRAD: B (>= 20% of tumors above the cutoff, but <50%)
  Over-expression category of source gene (target coverage), READ: A (>=50% of tumors above the cutoff)
  Over-expression category of source gene (target coverage), SKCM: B (>= 20% of tumors above the cutoff, but <50%)
  Over-expression category of source gene (target coverage), STAD: A (>=50% of tumors above the cutoff)
  Over-expression category of source gene (target coverage), UCEC: A (>=50% of tumors above the cutoff)
Source genes (mRNA) [1]
  Over-expression category of source gene (target coverage), BRCA: B (>= 20% of tumors above the cutoff, but <50%)
Source genes (mRNA) [1]; LIHC = Liver hepatocellular carcinoma (N = 374), same cutoff
  Over-expression category of source gene (target coverage), LIHC: C (>=5% of tumors above the cutoff, but <20%)
Source genes (mRNA) [2]
  Expression score BRCA: +
  Expression score AML: +
  Expression score OSCAR: ++
  Expression score GC: +
  Expression score NHL: +
  Expression score NSCLC: +
  Expression score OC: +
  Expression score SCLC: +
  Expression score UBC: +
  Expression score UEC: +

## 249: peptide found in PRKDC (gene looked up) (GLCERLVSL; listed as Homo sapiens) [compound 249]
HLA-A*02; HLA-A*02 peptides
  Presentation score CLL: +
HLA-A*02; HLA-A*02 peptides, colorectal cancer (N = 28) vs panel of normal tissues (N = 262)
  Presentation score CRC: +++
HLA-A*02; HLA-A*02 peptides, glioblastoma (N = 41) vs panel of normal tissues (N = 262)
  Presentation score GB: ++
HLA-A*02; HLA-A*02 peptides, non-small cell lung cancer (N = 90) vs panel of normal tissues (N = 262)
  Presentation score NSCLC: +
HLA-A*02; HLA-A*02 peptides, renal cell carcinoma (N = 20) vs panel of normal tissues (N = 262)
  Presentation score RCC: +++
HLA-A*02; [3]
  Peptide Presentation on cancer entities: GB, NSCLC, CLL, RCC, CRC
HLA-A*02; [4]
  Peptide Presentation on cancer entities: MEL, NHL, HNSCC
Source genes (mRNA) [1]; same cutoff
  Over-expression category of source gene (target coverage), BLCA: B (>= 20% of tumors above the cutoff, but <50%)
  Over-expression category of source gene (target coverage), CHOL: C (>=5% of tumors above the cutoff, but <20%)
  Over-expression category of source gene (target coverage), COAD: B (>= 20% of tumors above the cutoff, but <50%)
  Over-expression category of source gene (target coverage), DLBC: B (>= 20% of tumors above the cutoff, but <50%)
  Over-expression category of source gene (target coverage), ESCA: A (>=50% of tumors above the cutoff)
  Over-expression category of source gene (target coverage), GBM: C (>=5% of tumors above the cutoff, but <20%)
  Over-expression category of source gene (target coverage), KICH: C (>=5% of tumors above the cutoff, but <20%)
  Over-expression category of source gene (target coverage), KIRP: C (>=5% of tumors above the cutoff, but <20%)
  Over-expression category of source gene (target coverage), LAML: A (>=50% of tumors above the cutoff)
  Over-expression category of source gene (target coverage), LGG: B (>= 20% of tumors above the cutoff, but <50%)
  Over-expression category of source gene (target coverage), LUAD: B (>= 20% of tumors above the cutoff, but <50%)
  Over-expression category of source gene (target coverage), LUSC: A (>=50% of tumors above the cutoff)
  Over-expression category of source gene (target coverage), OV: B (>= 20% of tumors above the cutoff, but <50%)
  Over-expression category of source gene (target coverage), PAAD: C (>=5% of tumors above the cutoff, but <20%)
  Over-expression category of source gene (target coverage), PRAD: C (>=5% of tumors above the cutoff, but <20%)
  Over-expression category of source gene (target coverage), READ: B (>= 20% of tumors above the cutoff, but <50%)
  Over-expression category of source gene (target coverage), SKCM: A (>=50% of tumors above the cutoff)
  Over-expression category of source gene (target coverage), STAD: A (>=50% of tumors above the cutoff)
  Over-expression category of source gene (target coverage), UCEC: C (>=5% of tumors above the cutoff, but <20%)
Source genes (mRNA) [1]
  Over-expression category of source gene (target coverage), BRCA: A (>=50% of tumors above the cutoff)
Source genes (mRNA) [1]; KIRC = Clear cell kidney carcinoma (N = 534), same cutoff
  Over-expression category of source gene (target coverage), KIRC: C (>=5% of tumors above the cutoff, but <20%)
Source genes (mRNA) [2]
  Expression score BRCA: +
  Expression score AML: +
  Expression score OSCAR: +
  Expression score GBC_CCC: +
  Expression score GC: +
  Expression score NHL: +
  Expression score NSCLC: ++
  Expression score OC: +
  Expression score SCLC: ++
  Expression score UBC: +
  Expression score UEC: +
Source genes (mRNA) [2]; colorectal cancer (N = 20) vs panel of normal tissues
  Expression score CRC: +
Source genes (mRNA) [2]; glioblastoma (N = 24) vs panel of normal tissues
  Expression score GB: +
Source genes (mRNA) [2]; pancreatic cancer (N = 26) vs panel of normal tissues
  Expression score PC: +

## 253: peptide found in SMCHD1 (gene looked up) (ALAELIDNSL; listed as Homo sapiens) [compound 253]
HLA-A*02; HLA-A*02 peptides
  Presentation score CLL: ++++
HLA-A*02; [3]
  Peptide Presentation on cancer entities: CLL
HLA-A*02; [4]
  Peptide Presentation on cancer entities: NSCLC, AML
Source genes (mRNA) [1]
  Over-expression category of source gene (target coverage), BRCA: C (>=5% of tumors above the cutoff, but <20%)
Source genes (mRNA) [1]; same cutoff
  Over-expression category of source gene (target coverage), DLBC: C (>=5% of tumors above the cutoff, but <20%)
  Over-expression category of source gene (target coverage), ESCA: B (>= 20% of tumors above the cutoff, but <50%)
  Over-expression category of source gene (target coverage), LAML: A (>=50% of tumors above the cutoff)
  Over-expression category of source gene (target coverage), LGG: C (>=5% of tumors above the cutoff, but <20%)
  Over-expression category of source gene (target coverage), PRAD: C (>=5% of tumors above the cutoff, but <20%)
  Over-expression category of source gene (target coverage), SKCM: C (>=5% of tumors above the cutoff, but <20%)
  Over-expression category of source gene (target coverage), STAD: B (>= 20% of tumors above the cutoff, but <50%)
Source genes (mRNA) [2]
  Expression score AML: +
  Expression score GBC_CCC: +
  Expression score NSCLC: +
  Expression score SCLC: ++
Source genes (mRNA) [2]; chronic lymphocytic leukemia (N = 10) vs panel of normal tissues
  Expression score CLL: +++
